For three molecules, binding results are on record in article PMC6158461.

By UniProt entry, the sequences of proteins in these tests, tags left out. Where a name states a change or a piece, a line headed by the entry shows the natural chain unless it says otherwise.
UniProt Q9HYR1: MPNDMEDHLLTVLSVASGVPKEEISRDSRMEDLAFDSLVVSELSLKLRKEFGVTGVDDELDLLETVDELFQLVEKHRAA
UniProt O54439: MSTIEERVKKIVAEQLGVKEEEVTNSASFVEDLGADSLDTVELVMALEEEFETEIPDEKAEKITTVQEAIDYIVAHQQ

Results are given in words; binding and its absence hold for the method and conditions named. In cells and extracts the contact can be indirect. These calls come from enrichment with a bait or labelling near it, and not all partners need be listed. For some assays here: Where a sequence is shown, tags or fusion partners need not be part of it.

Holding throughout (experiment): affinity purification with mass spectrometry; tandem (sequential peptide) affinity purification of chromosomally SPA-tagged ACPs from stationary-phase PAO1 lysates: anti-FLAG M2 magnetic beads, 0.1% Triton X-100, TEV cleavage, calmodulin Sepharose, 4°C; untagged PAO1 as control; only proteins identified in both of two experiments reported
In test [1] the target is T1, Acp1 with C-terminal SPA tag (strain CW22) (P. aeruginosa) (UniProt O52658).
T1 sequence: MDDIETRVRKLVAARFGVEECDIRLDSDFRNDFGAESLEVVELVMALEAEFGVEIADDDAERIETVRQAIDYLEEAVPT

Test [2] has as its target Acp3 with C-terminal SPA tag (strain CW21) (P. aeruginosa) (UniProt Q9HYR1).
Test [3] concerns the target AcpP with C-terminal SPA tag (strain CW20) (P. aeruginosa) (UniProt O54439).

B1: PepA, cytosol aminopeptidase (enzyme, UniProt O68822 1-495)
chain: MEFLVKSVRPETLKTATLVLAVGEGRKLGASAKAVDDATGGAISAVLKRGDLAGKVGQTLLLQSLPNLKAERVLLVGAGKERELGDRQYRKLASAVLSTLKGLAGADAALALGDLAVKGRDAHAKARLLVETLADGLYVFDRYKSQKAEPLKLKKLTLLADKADSAAVEQGSKEAQAIANGMALTRDLGNLPPNVCHPTFLGEQAKGLAKEFKGLKVEVLDEKKLRELGMGSFLAVAQGSDQPPRLIVLQYNGAKKDQAPHVLVGKGITFDTGGISLKPGLGMDEMKFDMCGAASVFGTFRAVLELQLPINLVGLLACAENMPSGGATRPGDIVTTMSGQTVEILNTDAEGRLVLCDALTYAERFKPQSVIDIATLTGACIVALGSNTSGLMGNNEALVRQLLKAGEFADDRAWQLPLFDEYQEQLDSPFADIANIGGPKAGTITAGCFLSRFAKKYHWAHLDIAGTAWISGGKDKGATGRPVPLLTQYLLERAK
Regarding B1, the binding result in test [1] is “binds”.

B2: GlpR, glycerol-3-phosphate regulon repressor (protein, UniProt Q51391 1-251)
chain: MNLPPRQQSIIEEVRERGYLSIEEMAQMFAVTPQTIRRDINQLAEQGLLRRYHGGAAYDSSIENTAYTMRADQMRDEKQRIAEAVASLVPDNASLFINIGTTTEAIARALLNHRNLKIITNNLHVAATLSAKEDFEVLVAGGTVRSDGGIVGQAAVDFIQQFRVDFALVGISGIDEDGSLLDFDYQEVRVSQAIIDNARQVFLAADSSKFGRNAVVRLGPISLVNRVISDSPPPAAIARLMAQHKVHLDLV
B2: in test [1], the binding entry is recorded as “binds”.

B3: FabG, 3-oxo-acyl-ACP reductase (enzyme, UniProt O54438 1-247)
chain: MSLQGKVALVTGASRGIGQAIALELGRLGAVVIGTATSASGAEKIAETLKANGVEGAGLVLDVSSDESVAATLEHIQQHLGQPLIVVNNAGITRDNLLVRMKDDEWFDVVNTNLNSLYRLSKAVLRGMTKARWGRIINIGSVVGAMGNAGQTNYAAAKAGLEGFTRALAREVGSRAITVNAVAPGFIDTDMTRELPEAQREALLGQIPLGRLGQAEEIAKVVGFLASDGAAYVTGATVPVNGGMYMS
For the molecule B3, the binding entry in test [2], in test [1] and in test [3] was “binds” in each case.
